According to PMC5799368:
These are yes or no findings as the source states them, for the method shown. For some assays here: Binding can be weak; no strength is given. For some assays here: Where a sequence is shown, tags or fusion partners need not be part of it. For some assays here: In cells and extracts the contact can be indirect. Values belong to the substance of their own block, whether it stands above or below them.

Protein sequences, listed by entry. Tags and fused reporters are not part of them. Lines headed by an entry give the natural chain unless they say otherwise; changes in a name come on top.
UniProt P10275: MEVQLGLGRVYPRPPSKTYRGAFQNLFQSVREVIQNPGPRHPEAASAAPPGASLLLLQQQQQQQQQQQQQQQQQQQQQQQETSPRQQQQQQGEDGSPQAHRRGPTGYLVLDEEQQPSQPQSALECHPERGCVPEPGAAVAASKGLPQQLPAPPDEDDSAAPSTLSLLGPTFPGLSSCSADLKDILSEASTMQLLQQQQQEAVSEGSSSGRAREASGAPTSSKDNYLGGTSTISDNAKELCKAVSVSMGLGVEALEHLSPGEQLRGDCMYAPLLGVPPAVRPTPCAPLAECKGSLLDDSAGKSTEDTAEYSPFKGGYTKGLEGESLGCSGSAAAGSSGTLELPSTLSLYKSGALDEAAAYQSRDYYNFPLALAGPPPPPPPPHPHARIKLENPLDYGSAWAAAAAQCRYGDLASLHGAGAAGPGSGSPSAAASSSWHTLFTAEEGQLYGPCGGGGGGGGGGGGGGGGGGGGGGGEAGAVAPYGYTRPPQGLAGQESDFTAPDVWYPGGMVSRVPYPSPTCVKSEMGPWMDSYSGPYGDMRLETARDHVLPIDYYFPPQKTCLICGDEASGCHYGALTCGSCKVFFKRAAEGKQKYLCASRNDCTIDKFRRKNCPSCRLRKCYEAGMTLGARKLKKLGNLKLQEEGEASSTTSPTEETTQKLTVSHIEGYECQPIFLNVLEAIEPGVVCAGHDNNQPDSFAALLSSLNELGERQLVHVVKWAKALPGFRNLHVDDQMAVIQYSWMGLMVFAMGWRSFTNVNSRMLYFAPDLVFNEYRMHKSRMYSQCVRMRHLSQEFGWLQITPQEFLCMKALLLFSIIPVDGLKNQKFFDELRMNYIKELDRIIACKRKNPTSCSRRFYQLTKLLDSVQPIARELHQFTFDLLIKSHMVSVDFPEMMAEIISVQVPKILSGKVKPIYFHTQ
UniProt Q00987: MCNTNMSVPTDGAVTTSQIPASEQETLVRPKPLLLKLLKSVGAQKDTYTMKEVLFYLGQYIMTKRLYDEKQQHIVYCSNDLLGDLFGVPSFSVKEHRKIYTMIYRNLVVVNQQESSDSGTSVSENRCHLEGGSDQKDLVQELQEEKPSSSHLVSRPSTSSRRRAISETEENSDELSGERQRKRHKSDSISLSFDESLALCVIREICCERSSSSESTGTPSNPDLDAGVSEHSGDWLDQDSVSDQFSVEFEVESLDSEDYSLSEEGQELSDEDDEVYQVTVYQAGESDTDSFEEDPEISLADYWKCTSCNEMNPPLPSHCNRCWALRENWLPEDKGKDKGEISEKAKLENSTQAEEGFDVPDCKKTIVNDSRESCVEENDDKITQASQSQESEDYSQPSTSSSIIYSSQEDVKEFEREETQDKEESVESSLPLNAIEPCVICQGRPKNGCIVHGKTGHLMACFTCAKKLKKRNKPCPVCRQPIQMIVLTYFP
UniProt Q99496: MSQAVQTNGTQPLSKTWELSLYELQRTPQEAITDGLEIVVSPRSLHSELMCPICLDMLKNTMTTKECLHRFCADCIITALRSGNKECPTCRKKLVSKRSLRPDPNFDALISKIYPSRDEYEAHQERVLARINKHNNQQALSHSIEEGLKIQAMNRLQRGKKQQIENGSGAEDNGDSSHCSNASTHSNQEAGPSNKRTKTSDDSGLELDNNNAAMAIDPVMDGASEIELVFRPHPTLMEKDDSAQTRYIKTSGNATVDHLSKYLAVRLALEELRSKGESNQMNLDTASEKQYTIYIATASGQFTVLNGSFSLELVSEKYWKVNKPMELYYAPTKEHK

Key:
[1] = target: Halo-NTD (AR N-terminal domain) (UniProt P10275); test: pull-down; lysates of 293T cells transfected with Halo-AR constructs or empty vector; halo-tag magnetic beads, immunoblot
[2] = target: BMI1 (B lymphoma Mo-MLV insertion region 1) (human (endogenous in C4-2, 22Rv1, LuCaP PDX tissue, 293T)) (UniProt P35226); test: co-IP; lysates of 293T cells transfected with Halo-AR constructs or empty vector; IP with anti-BMI1 antibody, immunoblot
[3] = target: T1, GST fusion protein containing full-length mBMI1 (mouse) (UniProt P25916); test: pull-down; His-AR-NTD incubated at 4 °C for 12 h with GST fusion proteins, GST pull-down, immunoblot with anti-GST and anti-AR; both purified
T1 sequence: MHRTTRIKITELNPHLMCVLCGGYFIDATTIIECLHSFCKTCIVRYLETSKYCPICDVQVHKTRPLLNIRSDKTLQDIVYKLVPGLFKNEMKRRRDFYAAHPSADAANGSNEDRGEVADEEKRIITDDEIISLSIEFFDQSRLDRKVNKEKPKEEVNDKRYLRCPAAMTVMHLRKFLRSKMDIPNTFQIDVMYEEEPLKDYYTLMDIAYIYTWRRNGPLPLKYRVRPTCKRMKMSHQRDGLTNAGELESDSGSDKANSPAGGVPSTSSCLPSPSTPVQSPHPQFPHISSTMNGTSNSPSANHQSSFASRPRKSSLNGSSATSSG

[4] = target: GST-MDM2 fusion protein (UniProt Q00987); test: as above
[5] = target: GST-RING1B (UniProt Q99496); test: as above
[6] = target: GST-MDM2 fusion protein (UniProt Q00987); test: pull-down; competition: purified AR-NTD and MDM2 incubated with purified BMI1∆RING (0 or 2 µg) at 4 °C for 12 h, MDM2 pull-down, immunoblot; both purified
[7] = target: GST-MDM2 fusion protein (UniProt Q00987); test: pull-down; in vitro competitive binding: purified AR-NTD and GST-MDM2 incubated with purified His-BMI1 (0, 2 or 10 µg) at 4 °C for 12 h, GST pull-down, immunoblot; both purified
[8] = target: Purified 6×His AR-NTD protein (UniProt P10275); test: as above

- binding [1]: binds
Substance: BMI1 (B lymphoma Mo-MLV insertion region 1) (from UniProt P35226 1-326)

- binding [2]: binds
Substance: Halo-NTD (AR N-terminal domain) (from UniProt P10275) (domain or fragment)

- binding [3]: binds
- binding [4]: binds
- binding [5]: no binding
- binding [6]: binds
- binding [7]: binds
Substance: Purified 6×His AR-NTD protein (from UniProt P10275) (domain or fragment)

- binding [8]: binds
Substance: Purified His-BMI1 (from UniProt P35226 1-326)
